Inconclusive results, whose numbers are uncertain, are shown with a selection of clear calls. Potencies beside an inconclusive call are fits to weak or partial responses and may not hold up. Activity calls are given as the source filed them. Rule for the calls: active = hit-call score of the fitted dose curve at least 0.9, where 1 is the maximum; inconclusive = response in the unintended direction; inactive = score below 0.9.
target: Cellular tumor antigen p53 (Homo sapiens) (UniProt P04637); experiment: TOX21_p53_BLA_p5_ratio: Tox21 HCT-116 p53 Agonism Beta-lactamase Assay, Ratio, Phase 5 (AID 2283599)
Outline: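 Beta-lactamase reporter ratio (blue 460 nm over green 530 nm, 405 nm excitation) after 2 h CCF4-AM loading, in HCT-116 cells exposed 16 h at 37 C to compounds pinned at 217-fold dilution. Increases relative to DMSO baseline scored.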

Protein sequences, listed by entry. Tags and fused reporters are not part of them.
UniProt P04637, whole entry, looked up: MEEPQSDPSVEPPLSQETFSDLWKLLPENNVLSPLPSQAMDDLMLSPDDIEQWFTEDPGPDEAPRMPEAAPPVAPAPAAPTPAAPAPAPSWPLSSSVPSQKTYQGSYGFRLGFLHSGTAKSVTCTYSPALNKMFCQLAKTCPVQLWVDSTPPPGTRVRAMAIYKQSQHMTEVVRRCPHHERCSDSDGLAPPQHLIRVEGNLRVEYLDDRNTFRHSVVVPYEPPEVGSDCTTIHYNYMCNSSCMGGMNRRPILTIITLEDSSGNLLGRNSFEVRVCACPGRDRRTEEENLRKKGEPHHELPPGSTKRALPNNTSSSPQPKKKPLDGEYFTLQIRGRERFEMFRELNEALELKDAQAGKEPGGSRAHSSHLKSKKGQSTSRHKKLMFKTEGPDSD

For `CC(=O)Nc1cccc(O)c1`, which AC50 is on record?
The AC50 was inconclusive: 23 µM.

For `Nc1ccc2cc(S(=O)(=O)O)cc(O)c2c1`, which outcome is on record?
The outcome was “inactive”.

For `CN1CC(=O)N/C1=N/C(=O)Nc1cccc(Cl)c1`, which AC50 is on record?
Its AC50 is inconclusive: 23 µM.

Which outcome does the source give for `CCOc1ccc(NC(C)=O)cc1N` here?
The outcome was “inactive”.

Which AC50 does the source give for `CCN(CC)Cc1cc(Nc2ccnc3cc(Cl)ccc23)ccc1O` here?
The AC50 was inconclusive: 10.3 µM.

For `O=C(CCN1CCN2CCCC2C1)N1c2ccccc2Sc2ccc(Cl)cc21` (centres undefined), which AC50 is on record?
The AC50 was inconclusive: 23 µM.

Which AC50 does the source give for `COc1cc(C(=O)OC(COCCC(C)C)CN2CCOCC2)cc(OC)c1OC` (centres undefined) here?
The AC50 was inconclusive: 23 µM.

With `C[C@H]1C[C@H]2[C@@H]3CCC4=CC(=O)C=C[C@]4(C)[C@@]3(F)[C@@H](O)C[C@]2(C)[C@@]1(O)C(=O)CCl` as the molecule, how does the AC50 read?
Its AC50 is inconclusive: 36.1 µM.

For `O=C(O)[C@@H]1C[C@H](CP(=O)(O)O)CCN1`, which outcome is on record?
The outcome was “inactive”.

With `O=C1O[C@H]2[C@H](O)[C@@H]1OC(O)[C@H]2O` (some centres undefined) as the molecule, how does the AC50 read?
Its AC50 is inconclusive: 39 µM.

With `Oc1ccccc1C=NCc1ccccc1` as the molecule, how does the outcome read?
Its outcome is “inactive”.

For `CC(C)CN(C[C@@H](O)[C@H](Cc1ccccc1)NC(=O)O[C@H]1CO[C@H]2OCC[C@H]21)S(=O)(=O)c1ccc(N)cc1`, which outcome is on record?
The outcome was “inactive”.

For `CCN(CC)CCNC(=O)c1ccc(NS(C)(=O)=O)cc1`, which AC50 is on record?
The AC50 was inconclusive: 23 µM.

For `O=C1OC(=O)c2cc([N+](=O)[O-])ccc21`, which outcome is on record?
The outcome was “inactive”.

With `CCN1CCN(c2cc(-c3ccc(F)cc3)c3c(n2)CCCCCC3)CC1` as the molecule, how does the AC50 read?
Its AC50 is inconclusive: 23 µM.

Which AC50 does the source give for `CCCc1cc(C(N)=S)ccn1` here?
Its AC50 is inconclusive: 39.7 µM.

For `OC[C@]1(O)OC[C@@H](O)[C@H](O)[C@@H]1O`, which AC50 is on record?
The AC50 was inconclusive: 0.000119 µM.

Which AC50 does the source give for `c1cnc2cc3c(cc2n1)C1CNCC3C1` here?
Its AC50 is inconclusive: 36.8 µM.

With `C=C(C)C(=O)OCCNC(C)(C)C` as the molecule, how does the AC50 read?
The AC50 was inconclusive: 46 µM.

With `CC(O)C(CO)C(C)O` (centres undefined) as the molecule, how does the AC50 read?
Its AC50 is inconclusive: 46.5 µM.

test system: not listed separately; experiment: TOX21_p53_BLA_p5_viability: Viability Assessment in the Tox21 HCT-116 p53 Agonism Beta-lactamase Assay, Phase 5 (AID 2283600)
Outline: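 After the 460/530 nm beta-lactamase measurement, the wells received an ATP-detection luciferase reagent; signal was read 30 min later at RT. Compound treatment lasted 16 h on cells pre-incubated 5 h post-seeding.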

Which AC50 does the source give for `C[C@@H]1C[C@H]2O[C@@]3(O[C@@H]2C(C)(C)O)[C@H](O)[C@@]2(C)[C@@H]4CC[C@H]5C(C)(C)[C@@H](O[C@@H]6OC[C@@H](O)[C@H](O)[C@H]6O)CC[C@@]56C[C@@]46CC[C@]2(C)[C@@H]13` here?
The AC50 was inconclusive: 31.1 µM.

For `CC(=O)Nc1cccc(O)c1`, which AC50 is on record?
Its AC50 is inconclusive: 45.9 µM.

For `Nc1ccc2cc(S(=O)(=O)O)cc(O)c2c1`, which AC50 is on record?
Its AC50 is inconclusive: 0.596 µM.

For `CN1CC(=O)N/C1=N/C(=O)Nc1cccc(Cl)c1`, which outcome is on record?
The outcome was “inactive”.

Which AC50 does the source give for `Cc1cc(-c2ccccc2)nnc1NCCN1CCOCC1` here?
The AC50 was inconclusive: 23 µM.

For `CO/N=C(\C(=O)N[C@@H]1C(=O)N2C(C(=O)OCOC(=O)C(C)(C)C)=C(/C=C\c3scnc3C)CS[C@H]12)c1csc(N)n1`, which AC50 is on record?
Its AC50 is inconclusive: 23 µM.

With `CCOC(=O)c1ccc(OCCN2C[C@H](O)[C@@H](O)[C@H](O)[C@H]2CO)cc1` as the molecule, how does the AC50 read?
The AC50 was inconclusive: 23 µM.

For `C=C(C)C1CCC(C)(O)CC1` (centres undefined), which outcome is on record?
The outcome was “inactive”.

Which AC50 does the source give for `O=C(CCN1CCN2CCCC2C1)N1c2ccccc2Sc2ccc(Cl)cc21` (centres undefined) here?
The AC50 was inconclusive: 9.05 µM.

With `COc1cc(C(=O)OC(COCCC(C)C)CN2CCOCC2)cc(OC)c1OC` (centres undefined) as the molecule, how does the AC50 read?
The AC50 was inconclusive: 23 µM.

With `C[C@H]1C[C@H]2[C@@H]3CCC4=CC(=O)C=C[C@]4(C)[C@@]3(F)[C@@H](O)C[C@]2(C)[C@@]1(O)C(=O)CCl` as the molecule, how does the AC50 read?
The AC50 was inconclusive: 23 µM.

With `O=C(O)[C@@H]1C[C@H](CP(=O)(O)O)CCN1` as the molecule, how does the AC50 read?
The AC50 was inconclusive: 23 µM.

Which outcome does the source give for `Oc1ccccc1C=NCc1ccccc1` here?
The outcome was “inactive”.

Which AC50 does the source give for `O=C1CCC(=O)O1` here?
The AC50 was inconclusive: 46.3 µM.

Which AC50 does the source give for `O=c1[nH]ncc2ccccc12` here?
The AC50 was inconclusive: 45.4 µM.

Which outcome does the source give for `CC(C)CN(C[C@@H](O)[C@H](Cc1ccccc1)NC(=O)O[C@H]1CO[C@H]2OCC[C@H]21)S(=O)(=O)c1ccc(N)cc1` here?
Its outcome is “inactive”.

With `O=C1OC(=O)c2cc([N+](=O)[O-])ccc21` as the molecule, how does the AC50 read?
The AC50 was inconclusive: 3.52e-05 µM.

Which AC50 does the source give for `COc1ccc(N=[N+]([O-])c2ccc(OC)cc2)cc1` here?
Its AC50 is inconclusive: 23.5 µM.

With `CCN1CCN(c2cc(-c3ccc(F)cc3)c3c(n2)CCCCCC3)CC1` as the molecule, how does the outcome read?
The outcome was “inactive”.

With `N/C(=N\N=Cc1ccc(Cl)cc1)NN=Cc1ccc(Cl)cc1` as the molecule, how does the outcome read?
Its outcome is “inactive”.

For `CC(C)OCC1CO1` (centres undefined), which AC50 is on record?
The AC50 was inconclusive: 45.9 µM.

With `Nc1ccc(F)cc1F` as the molecule, how does the outcome read?
The outcome was “inactive”.

With `O=C(CCCCC(=O)Nc1c(I)cc(I)c(C(=O)O)c1I)Nc1c(I)cc(I)c(C(=O)O)c1I` as the molecule, how does the AC50 read?
The AC50 was inconclusive: 23 µM.

Which AC50 does the source give for `OC[C@]1(O)OC[C@@H](O)[C@H](O)[C@@H]1O` here?
The AC50 was inconclusive: 23 µM.

Which AC50 does the source give for `C[C@@H]1C\C=C/C=C/C=C/C=C/[C@H](O[C@@H]2O[C@H](C)[C@@H](O)[C@H](N)[C@@H]2O)C[C@@H]2O[C@](O)(C[C@@H](O)C[C@@H]3O[C@@H]3/C=C\C(=O)O1)C[C@H](O)[C@H]2C(=O)O` here?
The AC50 was inconclusive: 23 µM.

For `CCCCCCCCCCCCCCCCCCOP(=O)([O-])OC1CC[N+](C)(C)CC1`, which AC50 is on record?
Its AC50 is inconclusive: 3.67 µM.

Which AC50 does the source give for `CC1=C(C)C(=O)C(CCCCC#CCCCC#CCO)=C(C)C1=O` here?
Its AC50 is inconclusive: 1.43 µM.

With `CN(C)CCOCCN(C)CCO` as the molecule, how does the AC50 read?
Its AC50 is inconclusive: 46.1 µM.

For `O=C1C(=Cc2cccs2)CCCC1=Cc1cccs1`, which AC50 is on record?
Its AC50 is inconclusive: 23 µM.

Source: PubChem BioAssay (EPA / NIEHS)
